Experimental data reported in patent US8367707B2, “Pest control agents” (Meiji Seika Pharma Co., Ltd., priority 2005, dated 2013).
Some entries share one result that the patent states for a list of compounds.

Test system: Myzus persicae
Test: Test Example 1: pesticidal effect against Myzus persicae, cabbage leaf disk, 20 ppm
Format: in vivo
Details: first instar larvae on cabbage leaf disk, three days, 25° C.

Compound | death rate of larvae
CCC(=O)OC1CC2C(C)(COC(C)=O)C(OC(C)=O)CCC2(C)C2C(O)c3c(cc(-c4cccnc4)oc3=O)OC12C (stereo not shown) [Compound 1] | not less than 80%
CCCC(=O)OC1CC2C(C)(COC(C)=O)C(OC(C)=O)CCC2(C)C2C(O)c3c(cc(-c4cccnc4)oc3=O)OC12C (stereo not shown) [Compound 6] | not less than 80%
CCCCCC(=O)OC1CC2C(C)(COC(C)=O)C(OC(C)=O)CCC2(C)C2C(O)c3c(cc(-c4cccnc4)oc3=O)OC12C (stereo not shown) [Compound 8] | not less than 80%
CCCCCCC(=O)OC1CC2C(C)(COC(C)=O)C(OC(C)=O)CCC2(C)C2C(O)c3c(cc(-c4cccnc4)oc3=O)OC12C (stereo not shown) [Compound 9] | not less than 80%
CCCCCCCC(=O)OC1CC2C(C)(COC(C)=O)C(OC(C)=O)CCC2(C)C2C(O)c3c(cc(-c4cccnc4)oc3=O)OC12C (stereo not shown) [Compound 10] | not less than 80%
CC(=O)OCC1(C)C(OC(C)=O)CCC2(C)C1CC(OC(=O)CC(C)C)C1(C)Oc3cc(-c4cccnc4)oc(=O)c3C(O)C21 (stereo not shown) [Compound 14] | not less than 80%
CCC=CC(=O)OC1CC2C(C)(COC(C)=O)C(OC(C)=O)CCC2(C)C2C(O)c3c(cc(-c4cccnc4)oc3=O)OC12C (stereo not shown) [Compound 16] | not less than 80%
CCC#CC(=O)OC1CC2C(C)(COC(C)=O)C(OC(C)=O)CCC2(C)C2C(O)c3c(cc(-c4cccnc4)oc3=O)OC12C (stereo not shown) [Compound 18] | not less than 80%
C=CCCC(=O)OC1CC2C(C)(COC(C)=O)C(OC(C)=O)CCC2(C)C2C(O)c3c(cc(-c4cccnc4)oc3=O)OC12C (stereo not shown) [Compound 20] | not less than 80%
CC(=O)OCC1(C)C(OC(C)=O)CCC2(C)C1CC(OC(=O)c1ccc(N=[N+]=[N-])cc1)C1(C)Oc3cc(-c4cccnc4)oc(=O)c3C(O)C21 (stereo not shown) [Compound 25] | not less than 80%
CC(=O)OCC1(C)C(OC(C)=O)CCC2(C)C1CC(OC(=S)n1ccnc1)C1(C)Oc3cc(-c4cccnc4)oc(=O)c3C(O)C21 (stereo not shown) [Compound 34] | not less than 80%
CC(=O)OCC1(C)C(OC(C)=O)CCC2(C)C1CC(OC(=O)OCc1ccccc1)C1(C)Oc3cc(-c4cccnc4)oc(=O)c3C(O)C21 (stereo not shown) [Compound 35] | not less than 80%
CC(=O)OCC1(C)C(OC(C)=O)CCC2(C)C1CC(OS(C)(=O)=O)C1(C)Oc3cc(-c4cccnc4)oc(=O)c3C(O)C21 (stereo not shown) [Compound 36] | not less than 80%
CC(=O)OCC1(C)C(OC(C)=O)CCC2(C)C1CC(OS(=O)(=O)c1ccccc1)C1(C)Oc3cc(-c4cccnc4)oc(=O)c3C(O)C21 (stereo not shown) [Compound 37] | not less than 80%
CCNC(=O)OC1CC2C(C)(COC(C)=O)C(OC(C)=O)CCC2(C)C2C(O)c3c(cc(-c4cccnc4)oc3=O)OC12C (stereo not shown) [Compound 38] | not less than 80%
CCCNC(=O)OC1CC2C(C)(COC(C)=O)C(OC(C)=O)CCC2(C)C2C(O)c3c(cc(-c4cccnc4)oc3=O)OC12C (stereo not shown) [Compound 39] | not less than 80%
CC(=O)OCC1(C)C(OC(C)=O)CCC2(C)C1CC(OC(=O)NCc1ccccc1)C1(C)Oc3cc(-c4cccnc4)oc(=O)c3C(O)C21 (stereo not shown) [Compound 40] | not less than 80%
COCCOCOC1CC2C(C)(COC(C)=O)C(OC(C)=O)CCC2(C)C2C(O)c3c(cc(-c4cccnc4)oc3=O)OC12C (stereo not shown) [Compound 44] | not less than 80%
CC(=O)OCC1(C)C(OC(C)=O)CCC2(C)C1CC(O)C1(C)Oc3cc(-c4cccnc4)oc(=O)c3C(O)C21 (stereo not shown) [Compound 49] | not less than 80%
CC(=O)OC1CCC2(C)C(CC(OC(C)=O)C3(C)Oc4cc(-c5cccnc5)oc(=O)c4C(O)C23)C1(C)COS(C)(=O)=O (stereo not shown) [Compound 61] | not less than 80%
CC(=O)OC1CCC2(C)C(CC(OC(C)=O)C3(C)Oc4cc(-c5cccnc5)oc(=O)c4C(O)C23)C1(C)CO (stereo not shown) [Compound 69] | not less than 80%
CCCCCCCCCCCCCCCCCC(=O)OCC1(C)C(OC(=O)CCCCCCCCCCCCCCCCC)CCC2(C)C1CC(OC(=O)CCCCCCCCCCCCCCCCC)C1(C)Oc3cc(-c4cccnc4)oc(=O)c3C(O)C21 (stereo not shown) [Compound 88] | not less than 80%
CC(C)(C)C(=O)OCC1(C)C(OC(=O)C(C)(C)C)CCC2(C)C1CC(OC(=O)C(C)(C)C)C1(C)Oc3cc(-c4cccnc4)oc(=O)c3C(O)C21 (stereo not shown) [Compound 91] | not less than 80%
CC1(COS(C)(=O)=O)C(OS(C)(=O)=O)CCC2(C)C1CC(O)C1(C)Oc3cc(-c4cccnc4)oc(=O)c3C(O)C21 (stereo not shown) [Compound 98] | not less than 80%
CC(=O)OC1CC2C(C)(CO)C(O)CCC2(C)C2C(O)c3c(cc(-c4cccnc4)oc3=O)OC12C (stereo not shown) [Compound 103] | not less than 80%
CC(=O)OCC1(C)C(O)CCC2(C)C1CC(O)C1(C)Oc3cc(-c4cccnc4)oc(=O)c3C(O)C21 (stereo not shown) [Compound 106] | not less than 80%
CCC(=O)OCC1(C)C(O)CCC2(C)C1CC(O)C1(C)Oc3cc(-c4cccnc4)oc(=O)c3C(O)C21 (stereo not shown) [Compound 107] | not less than 80%
CCCC(=O)OCC1(C)C(O)CCC2(C)C1CC(O)C1(C)Oc3cc(-c4cccnc4)oc(=O)c3C(O)C21 (stereo not shown) [Compound 108] | not less than 80%

Compound | death rate of larvae
CCCCC(=O)OCC1(C)C(O)CCC2(C)C1CC(O)C1(C)Oc3cc(-c4cccnc4)oc(=O)c3C(O)C21 (stereo not shown) [Compound 109] | not less than 80%
CC1(COS(C)(=O)=O)C(O)CCC2(C)C1CC(O)C1(C)Oc3cc(-c4cccnc4)oc(=O)c3C(O)C21 (stereo not shown) [Compound 111] | not less than 80%
CCCCC(=O)OC1CC2C3(C)COC(C)OC3CCC2(C)C2C(O)c3c(cc(-c4cccnc4)oc3=O)OC12C (stereo not shown) [Compound 125] | not less than 80%
C=CC1OCC2(C)C(CCC3(C)C2CC(O)C2(C)Oc4cc(-c5cccnc5)oc(=O)c4C(O)C32)O1 (stereo not shown) [Compound 128] | not less than 80%
CCCCC(=O)OC1CC2C3(C)COC(C(C)(C)C)OC3CCC2(C)C2C(O)c3c(cc(-c4cccnc4)oc3=O)OC12C (stereo not shown) [Compound 133] | not less than 80%
CC1(C)OCC2(C)C(CCC3(C)C2CC(O)C2(C)Oc4cc(-c5cccnc5)oc(=O)c4C(O)C32)O1 (stereo not shown) [Compound 135] | not less than 80%
CCCCC(=O)OC1CC2C3(C)COC(C)(C)OC3CCC2(C)C2C(O)c3c(cc(-c4cccnc4)oc3=O)OC12C (stereo not shown) [Compound 137] | not less than 80%
CCCCC(=O)OC1CC2C3(C)COC(C)(c4ccccc4)OC3CCC2(C)C2C(O)c3c(cc(-c4cccnc4)oc3=O)OC12C (stereo not shown) [Compound 139] | not less than 80%
CCCCC(=O)OC1CC2C3(C)COC(OC)OC3CCC2(C)C2C(O)c3c(cc(-c4cccnc4)oc3=O)OC12C (stereo not shown) [Compound 142] | not less than 80%
COc1ccc(C2OCC3(C)C(CCC4(C)C3CC(O)C3(C)Oc5cc(-c6cccnc6)oc(=O)c5C(O)C43)O2)cc1 (stereo not shown) [Compound 153] | not less than 80%
CC12COC(=O)OC1CCC1(C)C2CC(OC(=O)n2ccnc2)C2(C)Oc3cc(-c4cccnc4)oc(=O)c3C(O)C12 (stereo not shown) [Compound 160] | not less than 80%
CCCCC(=O)OC1CC2C3(C)COC(=O)OC3CCC2(C)C2C(O)c3c(cc(-c4cccnc4)oc3=O)OC12C (stereo not shown) [Compound 161] | not less than 80%
CC(=O)OCC1(C)C(OC(C)=O)CCC2(C)C1CC(OC(C)=O)C1(C)Oc3cc(-c4cccnc4)oc(=O)c3C(OC(C)=O)C21 (stereo not shown) [Compound 162] | not less than 80%
CCC(=O)OCC1(C)C(OC(=O)CC)CCC2(C)C1CC(OC(=O)CC)C1(C)Oc3cc(-c4cccnc4)oc(=O)c3C(OC(=O)CC)C21 (stereo not shown) [Compound 167] | not less than 80%
CCCCC(=O)OC1c2c(cc(-c3cccnc3)oc2=O)OC2(C)C(OC(C)=O)CC3C(C)(COC(C)=O)C(OC(C)=O)CCC3(C)C12 (stereo not shown) [Compound 169] | not less than 80%
CCCCC(=O)OC1c2c(cc(-c3cccnc3)oc2=O)OC2(C)C(OC(=O)CCCC)CC3C(C)(COC(C)=O)C(OC(C)=O)CCC3(C)C12 (stereo not shown) [Compound 170] | not less than 80%
CCCC(=O)OC1c2c(cc(-c3cccnc3)oc2=O)OC2(C)C(OC(C)=O)CC3C(C)(COC(C)=O)C(OC(C)=O)CCC3(C)C12 (stereo not shown) [Compound 171] | not less than 80%
COC1c2c(cc(-c3cccnc3)oc2=O)OC2(C)C(OC(C)=O)CC3C(C)(COC(C)=O)C(OC(C)=O)CCC3(C)C12 (stereo not shown) [Compound 172] | not less than 80%
CC(=O)OCC1(C)C(OC(C)=O)CCC2(C)C3=Cc4c(cc(-c5cccnc5)oc4=O)OC3(C)C(=O)CC21 (stereo not shown) [Compound 176] | not less than 80%
CC(=O)OCC1(C)C(OC(C)=O)CCC2(C)C3=Cc4c(cc(-c5cccnc5)oc4=O)OC3(C)C(OC(C)=O)CC21 (stereo not shown) [Compound 180] | not less than 80%
CC(=O)OCC1(C)C(OC(C)=O)CCC2(C)C3=Cc4c(cc(-c5cccnc5)oc4=O)OC3(C)C(O)CC21 (stereo not shown) [Compound 182] | not less than 80%
CSCOC1CC2C(C)(CCC(OC(C)=O)C2(C)COC(C)=O)C2=Cc3c(cc(-c4cccnc4)oc3=O)OC21C (stereo not shown) [Compound 183] | not less than 80%
CC(=O)OCC1(C)C(OC(C)=O)CCC2(C)C3=Cc4c(cc(-c5cccnc5)oc4=O)OC3(C)C(OC(=O)CCc3ccccc3)CC21 (stereo not shown) [Compound 186] | not less than 80%
CC(=O)OC1CC2C(C)(CCC(OC(C)=O)C2(C)COS(C)(=O)=O)C2=Cc3c(cc(-c4cccnc4)oc3=O)OC21C (stereo not shown) [Compound 187] | not less than 80%
CC12CCC(O)C(C)(COS(C)(=O)=O)C1CC(O)C1(C)Oc3cc(-c4cccnc4)oc(=O)c3C=C21 (stereo not shown) [Compound 190] | not less than 80%
COc1ccc(C2OCC3(C)C(CCC4(C)C5=Cc6c(cc(-c7cccnc7)oc6=O)OC5(C)C(O)CC43)O2)cc1 (stereo not shown) [Compound 196] | not less than 80%
CCC(=O)OCC1(C)C(OC(=O)CC)CCC2(C)C1CC(OC(=O)c1ccc(C(F)(F)F)cc1)C1(C)Oc3cc(-c4cccnc4)oc(=O)c3C(O)C21 (stereo not shown) [Compound 208] | not less than 80%
